Here are results for 63 molecules from PubChem BioAssay AID2685 (National Center for Advancing Translational Sciences (NCATS), 2010).

This assay is described as follows: qHTS Assay for Lipid Storage Modulators in Drosophila S3 Cells.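 As to cell number change: cells counted by Cell Tracker Red CMTPX staining in the red channel.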 The conditions noted are these: BODIPY lipid droplet fluorescence, 18-24 h; for cell number change: measured here: cell count max response, cells fed with added oleic acid. The procedure, abridged:
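Drosophila S3 cells got compounds at several concentrations plus oleic acid (400 uM solution). Laser-scanning cytometry with 488 nm excitation read lipid droplets at 500-530 nm and cells at 575-640 nm. Percent activity was relative to 20 uM Triacsin C.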

[1] abbreviates: measured here: lipid fluorescence (Fed channel) AC50, cells fed with added oleic acid.
Where [2] appears, read: measured here: cell number channel AC50, cells fed with added oleic acid.

What is called AC50 is the concentration giving half of the maximal activity seen. Read a high AC50 as activity only at high concentration.

The structures appear in SMILES notation. The list shows a part of the results. These are further read-outs of the screen, such as a control signal, another cell line or another target. No call is given for them. The list favours compounds with an active or inconclusive main result. Potencies come from curve fits of mixed quality, noted in brackets.

Take `CC1=C(C(=O)O)N2C(=O)C(NC(=O)c3c(F)cccc3F)C2SC1` (configuration not stated): the cell number change was found to be 1.92%. The AC50 under setting [1] was 16.4 µM [rising, partial curve].

As for `CCc1noc(C)c1C(=O)NNC(=O)COc1cc(C)ccc1C`, the cell number change was -18.1%. Under setting [1], the concentration at half-maximal activity (AC50) is 0.00461 µM [rising, full curve, poor fit].

As to `CCN(Cc1ccccc1)C(=O)CCS(=O)(=O)c1ccc2c(c1)n(C)c(=O)c(=O)n2C`, the cell number change was 29.1%. Besides, under setting [1], the AC50 was 0.0259 µM [rising, full curve, poor fit].

On to `OCC[C@H]1C[C@@H](O)[C@H](O)[C@]2(Cc3ccccc3CO2)O1`, for which the cell number change is -13.8%.

For the molecule `CCOc1ccc(N(CC(=O)NC2CCCCC2)C(=O)CCC(=O)Nc2nc(C)cs2)cc1`, the cell number change stood at 2.17%.

As for `COc1ccc(-c2noc(N3CCC(C(=O)NC(C)c4ccccc4)CC3)n2)cc1` (configuration not stated), the cell number change was found to be 13.3%. For the same molecule, under setting [1], the AC50 is 23.1 µM [rising, single point].

`COc1ccc(/C=C(/C#N)S(=O)(=O)c2ccc(C)cc2)cc1`: the cell number change is 44.4%. Moreover, the concentration at half-maximal activity (AC50) under setting [2] is 29.1 µM [rising, single point].

On to `CCOC(=O)c1c(NC(=O)CSc2nccn2C)sc(C(=O)NC)c1C`, for which the cell number change is -0.803%. The concentration at half-maximal activity (AC50) under setting [2] was 0.58 µM [rising, full curve].

Turning to `CCc1cc2c(NCC(=O)O)ncnc2s1`, the cell number change was -80.8%. The AC50 under setting [2] is 20.6 µM [falling, single point].

As for `COc1ccc(N(CC(=O)NC2CCCC2)C(=O)Cn2nnc(-c3ccc(F)cc3)n2)cc1OC`, the cell number change turned out to be 3.63%.

As for `COc1ccc(OC)c(CN2CCN(C(=O)c3cccc(S(=O)(=O)Nc4ccccc4OC)c3)CC2)c1`, the cell number change came to 51%. Also, under setting [2], the AC50 is 3.66 µM [rising, full curve].

With `COc1ccc(CCN=C(N)NS(=O)(=O)c2ccc3ccccc3c2)cc1`, the cell number change was 34.2%. Besides, the half-maximal activity concentration (AC50) under setting [2] is 29.1 µM [rising, single point]. In addition, the concentration at half-maximal activity (AC50) under setting [1] is 18.4 µM [rising, single point].

With `O=C(COc1coc(CN2CCN(Cc3ccccc3)CC2)cc1=O)Nc1ccccc1`, the cell number change is -8.24%.

Consider `Cc1ccc(/C=N/NC(=O)C(O)c2ccccc2)o1` (configuration not stated), for which the cell number change was 9.7%. In addition, the AC50 under setting [1] was 0.0058 µM [falling, full curve].

`Cc1cc(C(=O)COC(=O)C2CC2)c(C)n1-c1ccc(F)cc1`: the cell number change was -0.733%.

`O=C(NCC(F)(F)F)c1nn(Cc2ccccc2)c(=O)c2ccccc12`: the cell number change turned out to be 8.87%. The concentration at half-maximal activity (AC50) under setting [1] was 2.91 µM [rising, full curve].

`Cn1ccnc1SCC(=O)N1CCN(S(=O)(=O)c2ccccc2)CC1`: under setting [2], the AC50 is 0.103 µM [rising, single point].

On to `Cc1ccc(NCc2nnc(SCC(=O)OC3CCCCC3)o2)c(C)c1`, for which the cell number change came out at 11.3%. The half-maximal activity concentration (AC50) under setting [1] is 0.231 µM [rising, full curve, poor fit].

For the molecule `COc1ccc(S(=O)(=O)N(CC(=O)NCc2ccco2)c2ccc(C)cc2)cc1OC`, the cell number change was -6.05%. Under setting [1], the AC50 is 5.8 µM [falling, partial curve].

On to `Cc1noc(NS(=O)(=O)c2ccc(N/C=C/C(=O)c3cccnc3)cc2)c1C`, for which the cell number change is 23.5%. In addition, the AC50 under setting [1] is 6.51 µM [falling, single point].

For the molecule `COc1cccc(/C=N/Nc2cc(C)nc(-c3ccccc3O)n2)c1O`, the cell number change was -55.7%. Further, the AC50 under setting [2] was 20.6 µM [falling, single point]. Under setting [1], the concentration at half-maximal activity (AC50) was 32.6 µM [falling, single point].

For the molecule `COc1ccc(C(=O)Nc2ccnn2C2CCN(C(=O)c3cccnc3)CC2)cc1`, the cell number change is -1.66%.

In the case of `Cn1nc(-c2ccccc2)cc1NC(=O)c1ccc(Cl)cc1`, the cell number change was determined as 8.92%. Besides, the AC50 under setting [1] was 3.26 µM [falling, single point].

As for `CCCCN(C(=O)c1cc(=O)[nH]c2ccccc12)c1c(N)n(CCC)c(=O)[nH]c1=O`, the cell number change is 12.7%. The AC50 under setting [2] was 0.00461 µM [falling, full curve, poor fit]. Moreover, the AC50 under setting [1] was 7.31 µM [falling, partial curve, poor fit].

For `O=C(NCc1ccccc1)Nc1cccn(Cc2c(F)cccc2Cl)c1=O`, the AC50 under setting [2] is 0.146 µM [falling, full curve, poor fit].

Regarding `C=CCN1C(=NC(=O)CCC(=O)O)SC2CS(=O)(=O)CC21` (configuration not stated), the cell number change came out at 2.9%. For the same molecule, the AC50 under setting [1] is 6.51 µM [falling, single point].

`N#Cc1nc(-c2ccc(OCc3ccc(Cl)cc3)cc2)oc1N1CCOCC1`: the cell number change was 11.3%.

`Cc1[nH][nH]c(=O)c1C=Nc1ccc(C(F)(F)F)cc1`: the cell number change was found to be 16.5%.

On to `COc1ccc(NC(=O)CSc2nc3c(c(=O)n2-c2ccccc2OC)SCC3)cc1`, for which the cell number change came to 12.8%. Under setting [2], the AC50 is 0.731 µM [rising, full curve]. Further, under setting [1], the AC50 is 5.8 µM [rising, partial curve, poor fit].

With `CCCCN(C(=O)C1CCCO1)c1c(N)n(CC(C)C)c(=O)[nH]c1=O` (configuration not stated), the cell number change was -6%.

In the case of `CC(C)c1ccc(NC2CCCN(C(=O)CCc3cnn(C)c3)C2)cc1` (configuration not stated), the cell number change was -0.289%. In addition, under setting [1], the AC50 was 16.4 µM [rising, partial curve].

Consider `O=C(Nc1ccccc1N1CCCCC1)c1ccc(OC(F)F)cc1`, for which the cell number change was 2.56%. Under setting [1], the AC50 is 29.1 µM [falling, single point].

For `CCCCn1c(SCn2nnc3ccccc3c2=O)nc2cc(S(N)(=O)=O)ccc21`, the AC50 was 0.82 µM [rising, partial curve] under setting [2] and 0.231 µM [rising, full curve, poor fit] under setting [1].

With `Cc1cccc(OCCCC(=O)NNC(=O)CCN2CCN(c3ccccc3)CC2)c1`, the cell number change came out at 53.5%. For the same molecule, the concentration at half-maximal activity (AC50) under setting [2] was 18.4 µM [rising, single point].

`CCn1c(=O)c2cc(C(=O)Nc3ccccc3OC)sc2c2ccccc21`: the cell number change is 27.2%. Also, under setting [2], the AC50 is 0.326 µM [rising, full curve, poor fit]. In addition, the AC50 under setting [1] is 0.259 µM [rising, partial curve, poor fit].

Turning to `O=C(COC(=O)Cc1ccc(Br)cc1)NC12CC3CC(CC(C3)C1)C2`, the cell number change was -8.35%. Further, the concentration at half-maximal activity (AC50) under setting [1] is 5.17 µM [falling, full curve].

With `Cc1nnc(NC(=O)c2cc(S(=O)(=O)N(C)C)ccc2N2CCCC2)s1`, the cell number change came out at 15.4%. Also, under setting [1], the AC50 was 29.1 µM [rising, single point].

Regarding `O=C(c1ccc(Cl)cc1)c1cnc2ccccn12`, the concentration at half-maximal activity (AC50) was 6.51 µM [rising, single point] under setting [2] and 4.61 µM [rising, full curve, poor fit] under setting [1].

Take `Oc1cc(-n2cccn2)c(O)cc1-n1cccn1`: the cell number change was -51.7%. Also, the AC50 under setting [2] is 0.0058 µM [falling, full curve, poor fit].

On to `Cc1cc(C)n(-c2ccc(C(=O)Nc3cccc([N+](=O)[O-])c3)cc2)n1`, for which the cell number change is -2.62%. Moreover, under setting [1], the AC50 is 6.51 µM [falling, single point].

As for `CCN1CCN(CC2CC3C=CC2C3)CC1` (configuration not stated), the AC50 under setting [1] was 6.51 µM [rising, single point].

Regarding `Cc1ncc(N=Nc2ccccc2)c(-c2ccccc2)n1`, the cell number change is -28.3%. Under setting [1], the concentration at half-maximal activity (AC50) is 20.6 µM [falling, partial curve].

As to `Cc1cc(C(=O)CCC(=O)NNC(=O)c2ccccc2O)c(C)s1`, the cell number change was 2.94%. In addition, under setting [1], the AC50 is 0.164 µM [falling, full curve, poor fit].

Turning to `O=C(CN1C(=O)c2ccccc2S1(=O)=O)NCCSCc1cccc(Cl)c1`, the cell number change is 9.21%.

On to `Cc1csc(NC(=O)C2CCN(S(=O)(=O)c3cccs3)CC2)n1`, for which the cell number change amounted to 34.3%. The concentration at half-maximal activity (AC50) under setting [2] is 18.4 µM [rising, single point]. For the same molecule, the AC50 under setting [1] is 29.1 µM [rising, single point].

Consider `CN(c1ccccc1)S(=O)(=O)c1cccc(C(=O)NCc2ccccc2)c1`, for which the cell number change came to 22.4%. Further, the AC50 under setting [1] is 14.6 µM [falling, partial curve].

With `O=C(NC1CCCCC1NC(=O)c1cccs1)c1cccs1` (configuration not stated), the cell number change was found to be 9.65%.

In the case of `CCOC(=O)CCCc1ccc(/C(C)=N/NC(=S)NC)cc1`, the cell number change was -4.34%. Besides, the AC50 under setting [1] was 3.26 µM [falling, single point].

Consider `CC(C)(C)c1ccc(OCC(=O)NNC(=O)c2cccnc2)cc1`, for which the cell number change worked out at 0.249%. The AC50 under setting [1] is 6.51 µM [falling, single point].

For the molecule `CCc1cccc(NC(=O)c2cccc3c2C(=O)N(CC2CCCO2)C3)c1` (configuration not stated), the cell number change was -12.7%. Under setting [1], the half-maximal activity concentration (AC50) is 11.6 µM [falling, single point].

As for `CSc1nc2ccccc2c(=O)n1C1CCCCC1`, the cell number change turned out to be 18.3%. In addition, the AC50 under setting [2] was 0.291 µM [rising, full curve]. For the same molecule, the AC50 under setting [1] was 29.1 µM [rising, single point].

Consider `COc1ccc(-c2nn(-c3ccccc3)cc2C(=O)Nc2ccc(C(=O)O)cc2)cc1OC`, for which the cell number change amounted to 2.56%. Moreover, the AC50 under setting [1] is 29.1 µM [falling, single point].

As to `O=C(NCC1CCS(=O)(=O)C1)Oc1ccccc1` (configuration not stated), the cell number change is -11.5%.

As to `Cc1ccc(C)c(OCCC(=O)N2CCN(S(=O)(=O)c3cc(C)ccc3C)CC2)c1`, the cell number change was 41.9%. The concentration at half-maximal activity (AC50) under setting [2] is 4.61 µM [rising, full curve, poor fit]. Moreover, the AC50 under setting [1] is 1.03 µM [rising, partial curve].

On to `O=C(NC(=S)NCCCN1CCOCC1)c1ccc(Br)cc1`, for which the cell number change was -29.7%. The AC50 under setting [1] is 0.731 µM [falling, full curve].

For `COc1cccc(/C=N/NC(=O)c2cc3c(OC)c(OC)ccc3[nH]2)c1OC`, the cell number change was -2.73%. Further, under setting [1], the AC50 was 1.64 µM [rising, partial curve].

In the case of `COc1ccc(-n2nc(C(=O)NCC(=O)NCCC3=CCCCC3)c3ccccc3c2=O)cc1OC`, the cell number change was -40.5%. Further, under setting [2], the concentration at half-maximal activity (AC50) was 0.206 µM [falling, full curve].

As for `Cc1ccccc1OCC(=O)N/N=C/c1cccc2cccnc12`, the cell number change is -20.2%. Besides, the half-maximal activity concentration (AC50) under setting [1] is 16.4 µM [falling, partial curve].

As for `Cc1sc2c(=O)n3c(nc2c1C(=O)NCCCN1CCOCC1)CCCCC3`, the cell number change turned out to be 9.52%. Besides, under setting [1], the AC50 is 14.6 µM [rising, partial curve].

For `COc1ccc(C(=O)NC(=S)Nc2ccc3oc(=O)ccc3c2)cc1`, the cell number change was -16.6%.

Turning to `COc1ccc(Br)cc1S(=O)(=O)N(CC(=O)N1CCN(C)CC1)c1ccccc1`, the cell number change was -54.2%. Also, the AC50 under setting [2] was 14.6 µM [falling, single point].

For the molecule `COc1ccccc1NS(=O)(=O)c1cccc(NC(=O)c2sc3ccccc3c2Cl)c1`, the cell number change is -41.3%.

Take `Cc1ccc(CNC(=O)CN2CCC(C(N)=O)CC2)cc1`: the cell number change is -2.27%. For the same molecule, under setting [2], the AC50 was 0.116 µM [falling, full curve, poor fit].
